Assay results published in the supplement of paper PMC3334620.
Over roughly 33,000 sequences, “E-score (-0.5 to 0.5)” has its median near -0.015; the highest 2% begin near 0.3. The list shows a part of the results.

The sequences below were run against T1, Abf1 (UniProt P14164) (assay: PBM E-score (8-mer binding enrichment) (E-score (-0.5 to 0.5)); higher = stronger / more preferred TF binding). Conditions: protein concentration: 200 nM; construct: GST-full length.
T1 sequence: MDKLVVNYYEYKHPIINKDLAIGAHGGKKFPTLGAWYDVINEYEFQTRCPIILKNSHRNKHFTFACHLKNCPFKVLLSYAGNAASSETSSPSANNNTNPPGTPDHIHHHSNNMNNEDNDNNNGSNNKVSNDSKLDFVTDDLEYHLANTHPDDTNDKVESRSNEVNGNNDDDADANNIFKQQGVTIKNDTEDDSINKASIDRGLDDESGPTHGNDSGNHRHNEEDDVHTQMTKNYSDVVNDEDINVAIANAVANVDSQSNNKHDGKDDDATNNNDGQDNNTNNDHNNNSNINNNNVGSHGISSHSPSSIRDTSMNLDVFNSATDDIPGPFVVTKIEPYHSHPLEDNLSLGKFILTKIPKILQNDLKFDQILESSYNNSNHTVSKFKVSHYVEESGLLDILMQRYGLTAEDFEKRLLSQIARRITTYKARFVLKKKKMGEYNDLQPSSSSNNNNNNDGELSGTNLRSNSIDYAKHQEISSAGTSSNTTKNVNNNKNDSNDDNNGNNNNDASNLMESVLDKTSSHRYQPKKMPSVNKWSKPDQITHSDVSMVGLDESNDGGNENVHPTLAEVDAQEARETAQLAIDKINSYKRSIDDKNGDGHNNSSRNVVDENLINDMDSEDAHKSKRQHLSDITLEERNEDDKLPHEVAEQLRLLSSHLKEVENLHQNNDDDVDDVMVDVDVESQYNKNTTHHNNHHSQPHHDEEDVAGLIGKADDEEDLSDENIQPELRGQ
Method in brief: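 E-scores (a modified Wilcoxon-Mann-Whitney statistic) were assigned by the Universal PBM Analysis Suite to every ungapped eight-base word pooled with its reverse complement. The input came from universal all-10-mer Agilent arrays made double-stranded by primer extension and probed with GST-tagged yeast transcription factors at about 100-200 nM. Fluorescent anti-GST detected bound protein, and masliner normalised the scans.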

Sequence | PBM E-score
GTTATTGA | 0.152
CAATGGGA | -0.128
ACGATTCC | 0.0784
ATGGTGTC | -0.0329
GGGAAGTA | -0.0781
TCCCCGAA | -0.215
GGTCCTAA | 0.108
CGCCTAGA | -0.0173
CATAGGCA | -0.167
GACGCATC | 0.2
GTCACTTA | 0.355
ATGGGCCG | -0.0454
TTAATTAA | -0.0568
ACGACTCA | 0.121
CAATCGCA | 0.024
CCGCTGTA | -0.135
CGCCCACG | -0.0798
AATTTAGA | 0.0649
GATTATTA | 0.0366
CCGGGTCC | -0.221
TAATACAA | 0.141
AAGATTAT | 0.0293
TCCCTTAA | -0.027
GTTGCAGA | 0.084
TTCTACAA | 0.0585

Sequence | PBM E-score
GAATGGAC | 0.0322
CCGTATTA | 0.206
AAATATGC | 0.0361
TAGGTATA | 0.0595
TCCGCCCA | -0.158
GGTGGCTA | -0.158
AAATCCCA | 0.0425
CCAACCGC | 0.00355
ATATCTGA | 0.105
ACCATAAG | -0.0923
AGACGACA | 0.264
CATTCCCA | -0.0683
ATGCCGCA | 0.0489
ACCTGGAA | 0.0807
GAGATTGA | -0.175
TTCACAAA | 0.00384
CAGGGATA | 0.0311
CAGACGTA | -0.0804
GACCAAGA | -0.144
ACGCCCCC | -0.311
CGCACGTA | 0.0987
GCTCATCC | -0.138
CCCAGCTA | 0.0223
AAACCGCC | -0.217
GGGCGTAC | 0.0418

Sequence | PBM E-score
GAATATTA | 0.146
TTACCTAA | 0.0912
GTTGAAGA | 0.0712
CCAATGCG | -0.177
ACCATTTA | 0.0343
CTGCGGTA | -0.0796
ACCGCTGG | -0.192
CAATGCGA | -0.137
CGCCCAAC | -0.0175
AGGGACAG | -0.3
GAACTCGC | 0.0562
TCTCAACA | 0.105
AGAGTAAT | 0.0837
TCATTGCA | 0.063
AATTAGCG | 0.0868
AGAACGTA | 0.0331
ACTTCCAG | -0.132
AGTAGCCG | -0.0725
CCCGCGCC | -0.134
CTAGCTCC | -0.132
AGGTCCGA | -0.0209
GAAGAGGA | -0.232
ACTCTTCT | 0.0673
CCCTCCCC | -0.291
AACAATGA | 0.221

Sequence | PBM E-score
AATGTCTC | 0.0395
ATTCTAAG | -0.0161
CCACCCCG | -0.184
CCTCAAAC | -0.0387
AGGGCCCT | -0.233
ATCTGCTC | -0.0794
AAACACAT | -0.0163
TACTGCTA | -0.221
AAATGACT | 0.274
GCAGGTTA | 0.0168
ACTGCGGG | 0.0139
ATCAGACG | 0.0307
CCCAATAA | -0.052
GCGTTGAC | 0.0935
ACGAGGGG | -0.0831
ATCCTCGG | -0.00426
AGTCGTAC | 0.169
TGGAGCAA | -0.0554
AGAATAGC | 0.0179
CACGAGGG | -0.011
AGGACTAA | -0.0301
AGATCCAC | 0.116
AATGTGAC | 0.185
GAGCGGAA | 0.0523
AAAGTCAT | 0.205

Sequence | PBM E-score
AGCCATTG | 0.0683
AGCAAGGA | -0.292
ACAGGTAG | -0.0394
CACCCGTC | 0.0459
CAAGTGGG | -0.00816
CGTGTGCA | 0.107
AAACGCGC | -0.178
AACAACAA | 0.103
AAGTGTAA | -0.103
ACTCACTG | -0.112
CAACGGCC | -0.103
AAGATCAA | 0.123
GACACTAA | -0.0284
GATCTCAC | 0.0761
CCGACTAA | -0.106
ATCTATGC | 0.108
TCTCGTCA | 0.277
CTGCATGC | -0.0428
AGGGTCTC | -0.214
CTCCGCGC | -0.159
GTTGCAAA | 0.107
AATTAATC | 0.154
AATAGCCA | -0.0176
AGTGCCTC | -0.198
AACAGCCC | -0.373

6 records drawn at random from those above:
Sequence | PBM E-score
GGGAAGTA | -0.0781
AGTGCCTC | -0.198
CAATGCGA | -0.137
CGCACGTA | 0.0987
ATCAGACG | 0.0307
AAGATTAT | 0.0293

Exported with each value named: part of the list above
AACAACAA
  PBM E-score = 0.103
AAGTGTAA
  PBM E-score = -0.103

Further results.

Sequence | PBM E-score
ATCGTACG | 0.394
AAACGCAC | -0.0189
GAGAACTC | -0.0578
CGCGATAG | 0.161
CCCCTCGA | -0.209
CAATGGGC | -0.183
CCCAGGTA | -0.238
AGAGAGTA | -0.00683
TCTGGAAA | 0.0108
GCTTATAC | 0.0755
GTTGGTAA | 0.105
ACGTCCAA | 0.0503
AAGGGATG | -0.0663
TCCACCGA | -0.174
CGCTGCTA | -0.129
GAGGCAAC | -0.112
ATGAGCGG | -0.0229
ACGATTCG | 0.291
GGCTTAAC | -0.0442
CGTGGAGA | 0.238
AGTTATCA | 0.302
CGCCTCCG | -0.0713
GAGCTATA | 0.0615
ATTCTCTG | 0.0737
TGTATCAA | -0.0209

Sequence | PBM E-score
ACCCGAGC | 0.0288
AGAACTAT | 0.00967
ATACCGGG | -0.0368
CTACTGAC | -0.173
GGTGTCAC | 0.163
GCCAGACA | -0.232
AGTGCTGG | 0.0849
CGGGAAGA | 0.0163
ATGTTATC | 0.239
ACAAACTG | -0.0686
AGGCGAGG | -0.169
AGCAATAA | -0.126
GACTTGCA | 0.00492
ATGCATGC | 0.0513
TCGACCCA | -0.0678
AACGGAAC | 0.119
AAAAACAG | -0.102
AGGCAAAT | 0.0127
CTCGCTAA | -0.121
ATTCAAAT | 0.0825
AGATCGCT | 0.134
TAAGATCA | 0.314
